No constants are given. Whether binding was seen depends on the method and setting. In cells and extracts the contact can be indirect. Some binding calls cover weakened binding; strength is not graded here.
What was measured:
[1] = molecular target: T1, Translationally controlled tumor protein (TCTP) (mouse (endogenous in AML12)) (UniProt P63028); test: co-IP; lysate of AML12 cells treated with LPS-CM (modified RIPA buffer); immunoprecipitated with antibody against TCTP, mTOR or RICTOR overnight at 4 °C, protein A + G agarose 3 h; western blot
T1 sequence: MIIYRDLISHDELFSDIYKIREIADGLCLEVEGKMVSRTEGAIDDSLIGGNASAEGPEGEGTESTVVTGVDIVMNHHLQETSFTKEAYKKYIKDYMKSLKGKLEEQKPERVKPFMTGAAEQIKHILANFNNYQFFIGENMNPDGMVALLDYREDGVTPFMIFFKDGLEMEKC

Amino acid sequences for entries named in this document (tags omitted).
UniProt Q6QI06: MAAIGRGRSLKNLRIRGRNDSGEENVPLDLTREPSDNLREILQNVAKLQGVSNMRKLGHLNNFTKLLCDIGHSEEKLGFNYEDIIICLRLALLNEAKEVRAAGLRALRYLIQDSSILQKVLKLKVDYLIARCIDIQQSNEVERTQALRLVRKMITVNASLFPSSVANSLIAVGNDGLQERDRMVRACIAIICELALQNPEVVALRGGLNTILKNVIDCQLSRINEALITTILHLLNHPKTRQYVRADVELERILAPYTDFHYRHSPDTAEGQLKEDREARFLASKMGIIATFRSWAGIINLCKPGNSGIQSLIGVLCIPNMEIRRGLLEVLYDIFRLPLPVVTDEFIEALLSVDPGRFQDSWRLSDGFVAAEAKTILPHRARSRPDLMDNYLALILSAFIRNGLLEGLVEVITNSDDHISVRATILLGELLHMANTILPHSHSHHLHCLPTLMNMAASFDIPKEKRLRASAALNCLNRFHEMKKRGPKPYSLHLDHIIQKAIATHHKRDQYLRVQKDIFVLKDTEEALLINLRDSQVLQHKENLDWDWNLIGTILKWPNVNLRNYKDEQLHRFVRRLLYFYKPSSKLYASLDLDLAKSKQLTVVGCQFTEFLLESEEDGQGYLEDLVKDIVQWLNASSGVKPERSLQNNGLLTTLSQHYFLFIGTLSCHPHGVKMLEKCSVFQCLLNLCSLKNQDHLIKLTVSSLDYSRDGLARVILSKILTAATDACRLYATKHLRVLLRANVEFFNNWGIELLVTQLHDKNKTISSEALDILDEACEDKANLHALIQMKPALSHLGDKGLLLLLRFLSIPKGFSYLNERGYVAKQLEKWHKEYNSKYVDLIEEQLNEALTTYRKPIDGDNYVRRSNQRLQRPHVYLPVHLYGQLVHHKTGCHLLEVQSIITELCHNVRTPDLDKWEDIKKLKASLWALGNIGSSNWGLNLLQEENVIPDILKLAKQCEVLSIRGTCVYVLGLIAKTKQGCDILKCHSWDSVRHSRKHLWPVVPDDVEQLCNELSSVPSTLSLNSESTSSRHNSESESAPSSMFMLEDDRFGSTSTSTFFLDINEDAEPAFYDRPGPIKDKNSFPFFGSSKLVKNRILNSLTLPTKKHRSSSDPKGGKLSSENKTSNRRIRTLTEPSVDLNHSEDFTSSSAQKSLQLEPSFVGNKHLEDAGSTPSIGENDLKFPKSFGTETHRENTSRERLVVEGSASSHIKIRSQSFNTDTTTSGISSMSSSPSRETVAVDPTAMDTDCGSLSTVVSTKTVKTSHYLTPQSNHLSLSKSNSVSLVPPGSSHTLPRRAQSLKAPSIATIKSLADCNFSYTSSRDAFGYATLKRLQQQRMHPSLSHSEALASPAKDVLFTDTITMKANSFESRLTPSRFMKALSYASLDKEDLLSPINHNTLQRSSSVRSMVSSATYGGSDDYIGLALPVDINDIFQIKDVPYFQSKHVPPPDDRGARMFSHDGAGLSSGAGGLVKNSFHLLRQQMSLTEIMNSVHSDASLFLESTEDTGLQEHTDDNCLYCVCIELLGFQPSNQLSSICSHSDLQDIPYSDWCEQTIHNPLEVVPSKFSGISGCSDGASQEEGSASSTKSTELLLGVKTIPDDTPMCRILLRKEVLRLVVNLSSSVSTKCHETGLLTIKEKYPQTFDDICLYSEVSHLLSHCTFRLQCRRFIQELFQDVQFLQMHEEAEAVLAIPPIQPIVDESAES
UniProt Q8K4Q0: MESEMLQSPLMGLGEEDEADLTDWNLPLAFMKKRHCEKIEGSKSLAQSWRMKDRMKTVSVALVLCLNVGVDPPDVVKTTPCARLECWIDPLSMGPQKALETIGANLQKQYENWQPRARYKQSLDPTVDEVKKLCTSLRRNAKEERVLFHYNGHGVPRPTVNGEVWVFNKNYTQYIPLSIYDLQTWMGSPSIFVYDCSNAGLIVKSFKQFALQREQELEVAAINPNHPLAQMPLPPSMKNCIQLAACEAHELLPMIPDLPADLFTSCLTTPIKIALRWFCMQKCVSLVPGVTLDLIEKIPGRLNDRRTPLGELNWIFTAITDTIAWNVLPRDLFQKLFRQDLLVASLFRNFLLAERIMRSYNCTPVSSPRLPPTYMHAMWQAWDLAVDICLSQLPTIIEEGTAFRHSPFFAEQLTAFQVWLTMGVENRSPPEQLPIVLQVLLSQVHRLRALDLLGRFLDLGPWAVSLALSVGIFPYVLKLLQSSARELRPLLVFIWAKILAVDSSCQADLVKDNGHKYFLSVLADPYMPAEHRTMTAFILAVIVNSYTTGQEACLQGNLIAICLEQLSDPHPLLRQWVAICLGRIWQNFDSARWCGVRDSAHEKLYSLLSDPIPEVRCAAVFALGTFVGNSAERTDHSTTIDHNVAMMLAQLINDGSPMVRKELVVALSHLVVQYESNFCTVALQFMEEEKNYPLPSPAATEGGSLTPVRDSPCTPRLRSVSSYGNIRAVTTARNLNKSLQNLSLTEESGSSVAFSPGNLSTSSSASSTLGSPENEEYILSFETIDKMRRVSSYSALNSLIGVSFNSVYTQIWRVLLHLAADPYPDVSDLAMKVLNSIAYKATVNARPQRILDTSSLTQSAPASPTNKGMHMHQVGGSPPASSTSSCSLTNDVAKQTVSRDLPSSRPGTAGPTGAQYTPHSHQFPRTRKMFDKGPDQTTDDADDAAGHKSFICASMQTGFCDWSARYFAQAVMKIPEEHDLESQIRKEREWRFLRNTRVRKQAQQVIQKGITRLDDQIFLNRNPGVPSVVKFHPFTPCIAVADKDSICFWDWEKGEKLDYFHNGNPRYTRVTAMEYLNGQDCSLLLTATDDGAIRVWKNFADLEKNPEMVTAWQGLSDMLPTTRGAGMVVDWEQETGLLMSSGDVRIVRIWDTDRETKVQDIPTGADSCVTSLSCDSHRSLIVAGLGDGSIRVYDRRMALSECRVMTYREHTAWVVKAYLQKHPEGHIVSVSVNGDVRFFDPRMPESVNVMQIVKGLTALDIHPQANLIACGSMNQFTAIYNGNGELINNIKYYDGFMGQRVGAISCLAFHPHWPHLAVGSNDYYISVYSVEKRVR

[2] = molecular target: RICTOR (mouse (endogenous in AML12)) (UniProt Q6QI06); test: as above

## RICTOR (from UniProt Q6QI06 1-1708)
[1]
  binding: binds

## Raptor (from UniProt Q8K4Q0 1-1335)
[1]
  binding: no binding

B1: Translationally controlled tumor protein (TCTP) (protein, UniProt P63028 1-172)
chain: T1 sequence
[2]
  binding: binds

Source: paper PMC6978394
